Source: publication PMC7862700
The entries are a selection whose mix differs from that of the whole data set. At the low end of the ranking the order means little.

Legend:
Assay in all cases: DAPPL (digital affinity profiling via proximity ligation, sequencing)
Conditions in all cases: 10 mM Tris-HCl pH 7.5, 50 mM NaCl, 1 mM DTT, 4% glycerol, room temperature, 30 min; GST-TFs on glutathione beads, 16-mer random dsDNA library, 0.1% …; high values mean tight binding; double strand, one strand shown; scale: fold enrichment (6-mer frequency, TF over GST control)
[1] = target: T1, ELK1 (UniProt P19419)
T1 sequence: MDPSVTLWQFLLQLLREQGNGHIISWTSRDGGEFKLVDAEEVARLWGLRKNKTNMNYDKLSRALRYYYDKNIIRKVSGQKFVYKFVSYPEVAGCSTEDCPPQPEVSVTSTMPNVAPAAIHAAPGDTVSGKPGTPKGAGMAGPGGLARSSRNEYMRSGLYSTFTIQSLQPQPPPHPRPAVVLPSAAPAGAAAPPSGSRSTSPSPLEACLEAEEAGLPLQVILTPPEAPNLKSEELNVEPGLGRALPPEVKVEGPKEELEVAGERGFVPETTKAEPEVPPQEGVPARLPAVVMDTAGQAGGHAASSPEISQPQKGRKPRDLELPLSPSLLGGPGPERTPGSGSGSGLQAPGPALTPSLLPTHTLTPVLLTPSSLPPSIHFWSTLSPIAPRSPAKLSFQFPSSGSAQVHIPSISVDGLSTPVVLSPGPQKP

[2] = target: T2, ELK3 (UniProt P41970)
T2 sequence: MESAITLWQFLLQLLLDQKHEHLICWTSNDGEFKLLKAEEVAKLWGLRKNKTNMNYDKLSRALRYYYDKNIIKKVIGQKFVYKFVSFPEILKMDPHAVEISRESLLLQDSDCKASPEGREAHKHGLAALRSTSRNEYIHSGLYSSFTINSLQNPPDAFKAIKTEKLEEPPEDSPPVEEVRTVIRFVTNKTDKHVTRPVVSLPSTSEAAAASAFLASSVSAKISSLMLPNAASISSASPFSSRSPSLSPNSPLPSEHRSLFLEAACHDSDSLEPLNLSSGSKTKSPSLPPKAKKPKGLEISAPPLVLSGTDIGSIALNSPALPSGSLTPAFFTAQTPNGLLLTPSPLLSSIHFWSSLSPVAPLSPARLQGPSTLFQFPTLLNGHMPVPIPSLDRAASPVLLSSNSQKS

[3] = target: T3, SPIC (UniProt Q8N5J4)
T3 sequence: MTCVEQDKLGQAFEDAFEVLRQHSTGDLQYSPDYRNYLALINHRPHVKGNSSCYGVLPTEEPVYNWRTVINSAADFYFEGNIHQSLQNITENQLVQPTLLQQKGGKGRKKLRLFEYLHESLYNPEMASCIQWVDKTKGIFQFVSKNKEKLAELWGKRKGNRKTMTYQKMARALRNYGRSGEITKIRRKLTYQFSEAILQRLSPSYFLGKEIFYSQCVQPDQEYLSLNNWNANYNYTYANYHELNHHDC

[4] = target: T4, ETS2 (UniProt P15036)
T4 sequence: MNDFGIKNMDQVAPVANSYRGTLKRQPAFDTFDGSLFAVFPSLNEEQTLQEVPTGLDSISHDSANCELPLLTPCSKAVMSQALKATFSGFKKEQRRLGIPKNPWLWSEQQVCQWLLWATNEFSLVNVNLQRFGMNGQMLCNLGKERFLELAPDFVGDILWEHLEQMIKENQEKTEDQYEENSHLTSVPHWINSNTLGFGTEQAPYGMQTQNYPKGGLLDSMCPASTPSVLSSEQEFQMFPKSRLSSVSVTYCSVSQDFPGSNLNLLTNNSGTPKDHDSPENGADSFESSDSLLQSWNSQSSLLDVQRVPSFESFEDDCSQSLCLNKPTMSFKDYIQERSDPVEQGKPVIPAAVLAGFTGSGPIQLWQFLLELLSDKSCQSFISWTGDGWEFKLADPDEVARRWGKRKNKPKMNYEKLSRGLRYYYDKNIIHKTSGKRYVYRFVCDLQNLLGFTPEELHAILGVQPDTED

[5] = target: T5, ETV3 (UniProt P41162-2)
T5 sequence: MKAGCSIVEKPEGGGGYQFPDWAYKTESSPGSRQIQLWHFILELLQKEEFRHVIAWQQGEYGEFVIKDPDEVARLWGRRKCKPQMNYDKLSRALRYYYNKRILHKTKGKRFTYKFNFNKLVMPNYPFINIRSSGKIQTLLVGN

Row | Sequence | binding signal [1] | binding signal [2] | binding signal [3] | binding signal [4] | binding signal [5]
1 | GGTGGG | 0.659 | 0.738 | 0.613 | 0.707 | 0.617
2 | GAACGG | 0.608 | 0.699 | 0.522 | 0.643 | 0.653
3 | TCGGGG | 0.414 | 0.405 | 0.371 | 0.38 | 0.388
4 | CGTTAG | 0.882 | 0.814 | 0.737 | 0.806 | 0.785
5 | CAAGTG | 0.685 | 0.8 | 0.786 | 0.75 | 0.774
6 | AGGGTG | 0.747 | 0.708 | 0.791 | 0.74 | 0.756
7 | GTAAGA | 0.793 | 0.87 | 0.891 | 0.77 | 0.742
8 | GCGTCG | 0.837 | 0.837 | 0.842 | 0.767 | 0.769
9 | GAGTAG | 0.533 | 0.477 | 0.516 | 0.464 | 0.476
10 | GAGGGT | 0.539 | 0.494 | 0.542 | 0.551 | 0.548
11 | CAGTCC | 0.64 | 0.616 | 0.604 | 0.579 | 0.658
12 | GATCGC | 0.931 | 0.822 | 0.715 | 0.82 | 0.829
13 | CGAGAG | 0.426 | 0.417 | 0.338 | 0.385 | 0.4
14 | GAGCAC | 0.758 | 0.7 | 0.751 | 0.67 | 0.703
15 | CGTCAG | 0.936 | 0.821 | 0.737 | 0.857 | 0.785
16 | TCAGAA | 0.89 | 0.953 | 0.864 | 0.894 | 0.942
17 | AGTTGT | 0.812 | 0.716 | 0.916 | 0.775 | 0.755
18 | GTAACG | 0.923 | 0.886 | 0.914 | 0.922 | 0.937
19 | AGCCCG | 0.851 | 0.865 | 0.855 | 0.816 | 0.935
20 | GGCTGA | 0.714 | 0.837 | 0.811 | 0.858 | 0.692

Complete entries from above. Values in the order: binding signal [1]	binding signal [2]	binding signal [3]	binding signal [4]	binding signal [5]
GAGGGT is listed with 0.539	0.494	0.542	0.551	0.548
CGTTAG is listed with 0.882	0.814	0.737	0.806	0.785
